Values from PubChem BioAssay AID1259254 (NCATS, 2017)
Shown is an unselected part of about 59,000 reagents. In the full data, about 1,550 (2.6%) are marked active. 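G2 share is only a proxy for re-replication; each gene was hit by three separate siRNAs, and active genes were retested.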 Raw values are not corrected between plates. Unmarked entries are inactive. Reagents against one gene are numbered here. The record does not give: the amount of reagent.

Purpose: 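Gene knock-downs that lead to re-replication, shown by excess G2 DNA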 (primary screen)
Cell system: human HCT116 colorectal cancer cells
Reagent: single siRNA against human genes
Timing: 3 days
Measured: 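Imaged Hoechst DNA stain sorts each cell into a cycle phase by DNA amount; per plate, G2 fraction set to 0% for non-targeting and 100% for GMNN siRNA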
Direction: G2 robust z-score and G2 cells, % of GMNN control: higher = more G2 cells, more excess DNA replication; raw share of cells in G2: higher = larger share of cells with G2 DNA content
Call rule: 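An siRNA counts as active if its G2 robust z-score lies at least 5 MADs above the screen median; here such calls match roughly 38% of GMNN control or more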

The opening 8 records as a preview:
no.	gene	reagent	G2 robust z-score	G2 cells, % of GMNN control	raw share of cells in G2 (%)
1	DHX38 (DEAH-box helicase 38)	1	0.166	4.14	6.77
2	DHX38 (DEAH-box helicase 38)	2	-0.907	-3.42	2.03
3	DHX38 (DEAH-box helicase 38)	3	0.0337	3.2	6.05
4	NUTF2 (nuclear transport factor 2)	1	1.78	15.5	12.3
5	NUTF2 (nuclear transport factor 2)	2	1.93	16.6	10.9
6	NUTF2 (nuclear transport factor 2)	3	2.64	21.6	11.2
7	ADAM9 (ADAM metallopeptidase domain 9)	1	-0.72	-2.1	4.83
8	ADAM9 (ADAM metallopeptidase domain 9)	2	0.245	4.69	6.57

The listing, from the start:
no.	gene	reagent	G2 robust z-score	G2 cells, % of GMNN control	raw share of cells in G2 (%)
1	DHX38 (DEAH-box helicase 38)	1	0.166	4.14	6.77
2	DHX38 (DEAH-box helicase 38)	2	-0.907	-3.42	2.03
3	DHX38 (DEAH-box helicase 38)	3	0.0337	3.2	6.05
4	NUTF2 (nuclear transport factor 2)	1	1.78	15.5	12.3
5	NUTF2 (nuclear transport factor 2)	2	1.93	16.6	10.9
6	NUTF2 (nuclear transport factor 2)	3	2.64	21.6	11.2
7	ADAM9 (ADAM metallopeptidase domain 9)	1	-0.72	-2.1	4.83
8	ADAM9 (ADAM metallopeptidase domain 9)	2	0.245	4.69	6.57
9	ADAM9 (ADAM metallopeptidase domain 9)	3	5.34 (active)	40.6	19
10	VAX1 (ventral anterior homeobox 1)	1	0.356	5.47	5.61
11	VAX1 (ventral anterior homeobox 1)	2	1.98	16.9	13
12	VAX1 (ventral anterior homeobox 1)	3	-0.716	-2.07	5.66
13	STT3B (STT3 oligosaccharyltransferase complex catalytic subunit B)	1	-0.89	-3.3	2.42
14	STT3B (STT3 oligosaccharyltransferase complex catalytic subunit B)	2	3.84	30	13
15	STT3B (STT3 oligosaccharyltransferase complex catalytic subunit B)	3	1.04	10.3	6.02
16	LY6D (lymphocyte antigen 6 family member D)	1	0.258	4.78	7.25
17	LY6D (lymphocyte antigen 6 family member D)	2	-0.526	-0.736	3.6
18	LY6D (lymphocyte antigen 6 family member D)	3	1.38	12.7	7.82
19	TAF4 (TATA-box binding protein associated factor 4)	1	1.55	13.9	11.3
20	TAF4 (TATA-box binding protein associated factor 4)	2	0.916	9.41	7.63
21	TAF4 (TATA-box binding protein associated factor 4)	3	1.15	11.1	7.26
22	MLLT10 (MLLT10 histone lysine methyltransferase DOT1L cofactor)	1	2.78	22.5	12.6
23	MLLT10 (MLLT10 histone lysine methyltransferase DOT1L cofactor)	2	0.143	3.97	7.28
24	MLLT10 (MLLT10 histone lysine methyltransferase DOT1L cofactor)	3	-0.89	-3.3	3.39
25	CFAP161 (cilia and flagella associated protein 161)	1	0.107	3.72	4.94
26	CFAP161 (cilia and flagella associated protein 161)	2	-0.411	0.0769	2.98
27	CFAP161 (cilia and flagella associated protein 161)	3	-0.659	-1.67	2.23
28	CFHR4 (complement factor H related 4)	1	-0.965	-3.82	2.25
29	CFHR4 (complement factor H related 4)	2	-0.788	-2.58	4.84
30	CFHR4 (complement factor H related 4)	3	2.36	19.6	11.5
31	PCDH15 (protocadherin related 15)	1	-0.502	-0.561	4.02
32	PCDH15 (protocadherin related 15)	2	0.629	7.39	8.71
33	PCDH15 (protocadherin related 15)	3	1.35	12.4	8.75
34	OR6C74 (olfactory receptor family 6 subfamily C member 74)	1	-0.838	-2.93	2.52
35	OR6C74 (olfactory receptor family 6 subfamily C member 74)	2	0.369	5.56	5.03
36	OR6C74 (olfactory receptor family 6 subfamily C member 74)	3	0.126	3.85	4.42
37	RPL29P23 (ribosomal protein L29 pseudogene 23)	1	9.73 (active)	71.5	30.7
38	RPL29P23 (ribosomal protein L29 pseudogene 23)	2	0.623	7.35	5.95
39	RPL29P23 (ribosomal protein L29 pseudogene 23)	3	6.55 (active)	49.1	18.6
40	PTP4A2 (protein tyrosine phosphatase 4A2)	1	4.55	35	16.2
41	PTP4A2 (protein tyrosine phosphatase 4A2)	2	0.275	4.9	5.78
42	PTP4A2 (protein tyrosine phosphatase 4A2)	3	-0.767	-2.43	2.77
43	UBR2 (ubiquitin protein ligase E3 component n-recognin 2)	1	0.318	5.21	8.46
44	UBR2 (ubiquitin protein ligase E3 component n-recognin 2)	2	-0.443	-0.151	4.1
45	UBR2 (ubiquitin protein ligase E3 component n-recognin 2)	3	-1	-4.09	2.46
46	FAM185A (family with sequence similarity 185 member A)	1	-0.407	0.104	3.62
47	FAM185A (family with sequence similarity 185 member A)	2	1.51	13.6	7.78
48	FAM185A (family with sequence similarity 185 member A)	3	0.135	3.92	4.44
49	PIF1 (PIF1 5'-to-3' DNA helicase)	1	0.725	8.07	8.79
50	PIF1 (PIF1 5'-to-3' DNA helicase)	2	0.172	4.18	5.71
51	PIF1 (PIF1 5'-to-3' DNA helicase)	3	0.126	3.86	6.21
52	OTUD3 (OTU deubiquitinase 3)	1	1.79	15.5	11.1
53	OTUD3 (OTU deubiquitinase 3)	2	-0.58	-1.11	3.68
54	OTUD3 (OTU deubiquitinase 3)	3	2.28	19	10.3
55	USB1 (U6 snRNA biogenesis phosphodiesterase 1)	1	1.31	12.2	9.5
56	USB1 (U6 snRNA biogenesis phosphodiesterase 1)	2	0.134	3.91	6.01
57	USB1 (U6 snRNA biogenesis phosphodiesterase 1)	3	-0.44	-0.129	2.34
58	SNX32 (sorting nexin 32)	1	0.492	6.43	5.25
59	SNX32 (sorting nexin 32)	2	-0.477	-0.389	3.44
60	SNX32 (sorting nexin 32)	3	1.52	13.6	7.8
61	C5orf22 (chromosome 5 open reading frame 22)	1	-0.59	-1.18	4.07
62	C5orf22 (chromosome 5 open reading frame 22)	2	3.69	28.9	16.1
63	C5orf22 (chromosome 5 open reading frame 22)	3	-0.146	1.94	3.76
64	LINC02870 (long independently transcribed non-coding RNA 2870)	1	0.853	8.97	5.6
65	LINC02870 (long independently transcribed non-coding RNA 2870)	2	-0.375	0.33	3.72
66	LINC02870 (long independently transcribed non-coding RNA 2870)	3	0.306	5.12	4.68
67	CSTL1 (cystatin like 1)	1	0.488	6.4	6.59
68	CSTL1 (cystatin like 1)	2	1.85	16	8.16
69	CSTL1 (cystatin like 1)	3	0.197	4.36	4.16
